Results published in patent US20220017615A1.
Positions count from the first letter of the chain named. No constants are given. Whether binding was seen depends on the method and setting. Binding can be weak; no strength is given.

B1: c29A03NA (antibody, V domains shown)
VH: EVQLQQSGAELVKPGASVKMSCKASGYTFTNYWITWVKQRPGQGLEWIGDIYPVSGGTDYNEKFKTRATLTVDTSSSTAYMHLSSLTSEDSAVYYCARKGRGGVDYWGQGTTLTVSS
VL: DILMTQTPLSLPVSLGDQASISCRSSQSIVHSNANTYLEWYLQKPGQSPKLLIYKVSNRFSGVPDRFSGSGSGTDFTLKISRVEAEDLGVYFCSQSTHVPYTFGGGTKLEIK
B2: c4D10B11 (antibody, V domains shown)
VH: QVQLQQSGPELVKPGASVKISCKASGYSFTSYYIHWVKQRPGQGLEWIGWIYPGSGNTKYNEKFKGKATLTADTSSSTADMQLSSLTSEDSAVYYCARRGDWYFDVWGTGTTVTVSS
VL: DIVMSQSPSSLVVSVGEKVTMNCKSSQSLLFSGNQKSSLAWYQQKPGQSPKLLIYWASTRESGVPDRFTGSGSGTDFTLIISTVKAEDLAVYSCQQYYSYPLTFGAGTKLELK
B3: c25E3B5 (antibody, V domains shown)
VH: QVQLQQPGTALVRPGSSVKLSCKASGYTFTSYWMHWVRQRPIKGLEWIGNIDPSDSETHYNQRFKDKVTLTVDKSSNTAYMQLSSLTSEDSAVYYCARWKYHGIGAMDYWGQGTSVTVSS
VL: DVQITQSPSYLAASPGETVTISCRTNRNISKFLAWYQEKPGKTNKLLIYSGSTLHSGIPSRFSGSGSGTDFTLTISRLEPEDFAMYYCQQHNEYPWSFGGGTKLEIK
B4: c20H4G5 (antibody, V domains shown)
VH: QVQLQQPGAELVRPGSSVRLSCVTSGYTFTSHWMHWVKQGPIKGLEWIGNIDPSDSETHYNQKFKDKATLTVDKSSSTAYMQLSRLTSDDSAVYYCARWRHLGIGAMDYWGQGTSVIVSS
VL: B3 VL with V19I, S22N, T25A, N26S, R27K, E38A, T43S, K45N, H55Q, S97T
B5: c51E2F11 (antibody, V domains shown)
VH: EVQLQQSGAELVKPGASVKLSCTASGFNIKDHYIHWMNQRTEQGLEWIGRIDPDDGETRYAPKFRGKATLTADTSSNTAYLQFSSLTSEDTAVYHCTRATTITRDWYFDVWGTGTTVTVSS
VL: DIVMTQSQKFMSTSVGDRVSITCKASQNVRTSVAWYQQKPGQSPKALIYLASNRHTGIPDRFTGSGSGTDFTLTIRNVQSEDLADYFCLQHWDYPLTFGAGTKLELK
B6: c95E2D10 (antibody, V domains shown)
VH: QIQLQQSGPELVKPGASMKISCKASGYPFTDYYIHWVKQKPGQGLEWIGWIYPGSGNNKYNEKFKGKATLTVDTSPSTVYMQLSSLTSEDTAVYFCARRAGNYFDYWGQGTTLTVSS
VL: NIVMTQSPKSMSRSVGERVTLSCRASENVRTYVFWYQQKPGLSPKLLIYGASNRYIGVPDRFTGSGSATDFTLTISSVQAEDLADYHCGQSYSYPLTFGAGTKLELK
B7: c54G8G6 (antibody, V domains shown)
VH: QVQLQQPGADLVKPGASVKMSCKASGYTFTSYWIIWVKQRPGQGLEWIGDINPGRGSPNYNEKFKRKATLTVDTSSSTAYMQLSSLTSEDSAVYYCVRGGLRRFDHWGQGTLVTVSA
VL: ENVLTQSPAIMSASPGEKVTMTCRASSSVSSSYLHWYQQKSGASPKLWIYSTSTLASGVPARFSGSGSGTSYSLTISSVEAEDAATYYCQQYSGYPYTFGGGTKLEIK
B8: c132D1E5 (antibody, V domains shown)
VH: QVQLQQPGAELVRPGSSVKLSCKASGYTFTNNWMHWVKQRPLQGLEWIGNIDPSDSETHYNQKFKDKATLTVDKSSTTAYIQLSSLTSEDSAVYYCARWRGGGRGAMDYWGQGTSVTVSS
VL: B3 VL with V19I, S22N, N26S, R27K, H55Q, R77N, S97T, G100R
B9: 4D10B11 (antibody, V domains shown)
VH: B2 VH
VL: B2 VL
B10: 25E3B5 (antibody, V domains shown)
VH: B3 VH
VL: B3 VL
B11: 20H4G5 (antibody, V domains shown)
VH: B4 VH
VL: B3 VL with V19I, S22N, T25A, N26S, R27K, E38A, T43S, K45N, H55Q, S97T
B12: 51E2F11 (antibody, V domains shown)
VH: B5 VH
VL: B5 VL
B13: 54G8G6 (antibody, V domains shown)
VH: B7 VH
VL: B7 VL
B14: 95E2D10 (antibody, V domains shown)
VH: B6 VH
VL: B6 VL
B15: 132D1E5 (antibody, V domains shown)
VH: B8 VH
VL: B3 VL with V19I, S22N, N26S, R27K, H55Q, R77N, S97T, G100R

These binders were tested against cynomolgus CD47, on CHOK1-cCD47 stable cell line (cynomolgus) (assay: FACS on cynomolgus CD47-expressing cells).

Binder	binding
B1	binds
B2	binds
B3	binds
B4	binds
B5	binds
B6	binds
B7	binds
B8	binds

What follows are binders tested against cynomolgus CD47, on CHOK1-cCD47 stable cell line (cynomolgus) (assay: flow cytometry (FACS) on CHOK1-cynoCD47 cells, mean fluorescence intensity).

Binder	binding
B1	binds
B2	binds
B3	binds
B4	binds
B5	binds
B6	binds

These binders were tested against cynomolgus CD47, on CHOK1-cCD47 stable cell line (cynomolgus) (assay: FACS CHOK1-cCD47).

Binder	binding
B9	binds
B10	binds
B11	binds
B12	binds
B13	binds
B14	binds
B15	binds
